# Assay results from the supplement of paper PMC8728848.
# This is one part of the list.
# B1: Protein L(A-C2) (Finegoldia magna), Q51912 (protein)
# chain: ADEPIDLEKLEEKRDKENVGNLPKFDNEVKDGSENPMAKYPDFDDEASTRFETENNEFEEKKVVSDNFFDQSEHPFVENKEETPETPETDSEEEVTIKANLIFANGSTQTAEFKGTFEKATSEAYAYADTLKKDNGEYTVDVADKGYTLNIKFAGKEKTPEEPKEEVTIKANLIYADGKTQTAEFKGTFEEATAEAYRYADALKKDNGEYTVDVADKGYTLNIKFAGKEKTPEEPKEEVTIKANLIYADGKTQTAEFKGTFEEATAEAYRYADLLAKENGKYTVDVADKGYTLNIKFAGKEKTPEEPKEEVTIKANLIYADGKTQTAEFKGTFAEATAEAYRYADLLAKENGKYTADLEDGGYTINIRFAGKKVDEKPEEKEQVTIKENIYFEDGTVQTATFKGTFAEATAEAYRYADLLSKEHGKYTADLEDGGYTINIRFAGKEEPEETPEKPEVQDGYASYEEAEAAAKEALKNDDVNKSYTIRQGADGRYYYVLSPVEAEEEKPEAQNGYATYEEAEAAAKKALENDPINKSYSIRQGADGRYYYVLSPVEAE
# How the values were obtained:
# Assay in all cases: glycan array binding signal (z-score within array); higher = stronger binding
# Conditions in all cases: glycan notation: IUPAC condensed, linker removed
# [1] = target: GlcNAc(b1-3)Gal(b1-4)GlcNAc(b1-3)Gal(b1-4)GlcNAc(b1-3)GalNAc
# How it was run: (§1)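 The binding signal is a Z-score computed within each array. Data were drawn from 3228 arrays in the Consortium for Functional Glycomics database, restricted to those with a known protein sequence. Scores were averaged over arrays of the same protein sequence at different concentrations or buffers, and over linkers, and negative values can be taken as non-binding.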
# [2] = target: GlcNAc(b1-3)Gal(b1-4)GlcNAc(b1-3)GalNAc
# How it was run: as §1
# [3] = target: GlcNAc(b1-3)Gal(b1-4)GlcNAc(b1-3)[GlcNAc(b1-3)Gal(b1-4)GlcNAc(b1-3)]GalNAc
# How it was run: as §1
# [4] = target: GlcNAc(b1-3)Gal(b1-4)GlcNAc(b1-6)[Gal(b1-3)]GalNAc
# How it was run: as §1
# [5] = target: GlcNAc(b1-3)Gal(b1-4)GlcNAc(b1-6)[GlcNAc(b1-3)Gal(b1-3)]GalNAc
# How it was run: as §1
# [6] = target: GlcNAc(b1-3)Gal(b1-4)GlcNAc(b1-6)[GlcNAc(b1-3)]Gal(b1-4)GlcNAc
# How it was run: as §1
# GlcNAc(b1-3)GalNAc = target: GlcNAc(b1-3)GalNAc
# How it was run: as §1
# GlcNAc(b1-3)Man = target: GlcNAc(b1-3)Man
# How it was run: as §1
# [7] = target: GlcNAc(b1-3)[GlcNAc(b1-4)][GlcNAc(b1-6)]GlcNAc
# How it was run: as §1
# [8] = target: GlcNAc(b1-3)[GlcNAc(b1-6)]Gal(b1-4)GlcNAc
# How it was run: as §1
# [9] = target: GlcNAc(b1-3)[GlcNAc(b1-6)]GalNAc
# How it was run: as §1
# [10] = target: GlcNAc(b1-4)Gal(b1-4)GlcNAc
# How it was run: as §1
# GlcNAc(b1-4)GlcNAc = target: GlcNAc(b1-4)GlcNAc
# How it was run: as §1
# [11] = target: GlcNAc(b1-4)GlcNAc(b1-4)GlcNAc
# How it was run: as §1
# [12] = target: GlcNAc(b1-4)GlcNAc(b1-4)GlcNAc(b1-4)GlcNAc(b1-4)GlcNAc
# How it was run: as §1
# [13] = target: GlcNAc(b1-4)GlcNAc(b1-4)GlcNAc(b1-4)GlcNAc(b1-4)GlcNAc(b1-4)GlcNAc
# How it was run: as §1
# [14] = target: GlcNAc(b1-4)[GlcNAc(b1-6)]GalNAc
# How it was run: as §1
# [15] = target: GlcNAc(b1-6)Gal(b1-4)GlcNAc
# How it was run: as §1
# GlcNAc(b1-6)GalNAc = target: GlcNAc(b1-6)GalNAc
# How it was run: as §1
# [16] = target: GlcNAc6S(b1-3)Gal(b1-4)GlcNAc
# How it was run: as §1
# Kdn(a2-3)Gal(b1-3)GalNAc = target: Kdn(a2-3)Gal(b1-3)GalNAc
# How it was run: as §1
# Kdn(a2-3)Gal(b1-3)GlcNAc = target: Kdn(a2-3)Gal(b1-3)GlcNAc
# How it was run: as §1
# Kdn(a2-3)Gal(b1-4)Glc = target: Kdn(a2-3)Gal(b1-4)Glc
# How it was run: as §1
# Kdn(a2-3)Gal(b1-4)GlcNAc = target: Kdn(a2-3)Gal(b1-4)GlcNAc
# How it was run: as §1
# [17] = target: Kdn(a2-3)Gal(b1-4)[Fuc(a1-3)]GlcNAc
# How it was run: as §1
# Kdn(a2-6)Gal(b1-4)GlcNAc = target: Kdn(a2-6)Gal(b1-4)GlcNAc
# How it was run: as §1
# [18] = target: Man(a1-2)Man(a1-2)Man(a1-3)Man
# How it was run: as §1
# [19] = target: Man(a1-2)Man(a1-2)Man(a1-6)[Man(a1-3)]Man
# How it was run: as §1
# Man(a1-2)Man(a1-3)Man = target: Man(a1-2)Man(a1-3)Man
# How it was run: as §1
# [20] = target: Man(a1-2)Man(a1-3)[Man(a1-2)Man(a1-6)]Man
# How it was run: as §1
binder,measurement,setting,value
B1,glycan array binding signal (z-score),[1],-0.786
same,glycan array binding signal (z-score),[2],-0.749
same,glycan array binding signal (z-score),[3],-0.531
same,glycan array binding signal (z-score),[4],0.049
same,glycan array binding signal (z-score),[5],-0.623
same,glycan array binding signal (z-score),[6],-0.568
same,glycan array binding signal (z-score),GlcNAc(b1-3)GalNAc,-0.858
same,glycan array binding signal (z-score),GlcNAc(b1-3)Man,-0.226
same,glycan array binding signal (z-score),[7],-0.145
same,glycan array binding signal (z-score),[8],-0.856
same,glycan array binding signal (z-score),[9],-0.41
same,glycan array binding signal (z-score),[10],-0.687
same,glycan array binding signal (z-score),GlcNAc(b1-4)GlcNAc,-0.693
same,glycan array binding signal (z-score),[11],-0.712
same,glycan array binding signal (z-score),[12],-0.381
same,glycan array binding signal (z-score),[13],-0.356
same,glycan array binding signal (z-score),[14],-0.543
same,glycan array binding signal (z-score),[15],-0.283
same,glycan array binding signal (z-score),GlcNAc(b1-6)GalNAc,-0.929
same,glycan array binding signal (z-score),[16],0.355
same,glycan array binding signal (z-score),Kdn(a2-3)Gal(b1-3)GalNAc,0.05
same,glycan array binding signal (z-score),Kdn(a2-3)Gal(b1-3)GlcNAc,-0.23
same,glycan array binding signal (z-score),Kdn(a2-3)Gal(b1-4)Glc,-0.064
same,glycan array binding signal (z-score),Kdn(a2-3)Gal(b1-4)GlcNAc,-0.648
same,glycan array binding signal (z-score),[17],2.1
same,glycan array binding signal (z-score),Kdn(a2-6)Gal(b1-4)GlcNAc,-0.185
same,glycan array binding signal (z-score),[18],-0.753
same,glycan array binding signal (z-score),[19],0.607
same,glycan array binding signal (z-score),Man(a1-2)Man(a1-3)Man,-0.409
same,glycan array binding signal (z-score),[20],-1.12

# Reprinted at random: two records from the list.
binder,measurement,setting,value
B1,glycan array binding signal (z-score),[12],-0.381
same,glycan array binding signal (z-score),Kdn(a2-3)Gal(b1-4)Glc,-0.064
